Test results reported in paper PMC10247727, “Stabilization of pre-existing neurotensin receptor conformational states by β-arrestin-1 and the biased allosteric modulator ML314” (Nature Communications, 2023).
Results are given in words; binding and its absence hold for the method and conditions named. Binding can be weak; no strength is given. Sequences can lack the tags named with a protein.

Columns and labels:
[1] = target: NT8-13:enNTS1ΔM4 complex (rat | not stated); assay: NMR titration; 1H-13C SOFAST-HMQC of 66 μM [13CεH3-methionine]-enNTS1ΔM4 with 500 μM NT8-13, 130 μM PIP2 and 0.3-3x molar equivalents of unlabelled βArr1-3A; DDM, 50 mM potassium phosphate pH 7.4, 100 mM NaCl, 298 K; without PIP2 only limited spectral changes; both purified
[2] = target: NT8-13:enNTS1ΔM4 complex (rat | not stated); assay: NMR (1H-13C HMQC spectra); 66 μM [13CεH3-methionine]-enNTS1ΔM4 with NT8-13 and ML314 (500 μM each), 130 μM PIP2 and 2.3x molar equivalents βArr1-3A, 298 K; both purified

binding [1]: binds
binding [2]: binds
B1: βArr1-3A (pre-activated cysteine-free human β-arrestin-1, I386A/V387A/F388A), tags removed (natural protein)
chain: GPSGDKGTRVFKKASPNGKLTVYLGKRDFVDHIDLVDPVDGVVLVDPEYLKERRVYVTLTVAFRYGREDLDVLGLTFRKDLFVANVQSFPPAPEDKKPLTRLQERLIKKLGEHAYPFTFEIPPNLPSSVTLQPGPEDTGKALGVDYEVKAFVAENLEEKIHKRNSVRLVIRKVQYAPERPGPQPTAETTRQFLMSDKPLHLEASLDKEIYYHGEPISVNVHVTNNTNKTVKKIKISVRQYADIVLFNTAQYKVPVAMEEADDTVAPSSTFSKVYTLTPFLANNREKRGLALDGKLKHEDTNLASSTLLREGANREILGIIVSYKVKVKLVVSRGGLLGDLASSDVAVELPFTLMHPKPKEEPPHREVPENETPVDTNLIELDTNDDDAAAEDFARQRLKGMKDDKEEEEDGTGSPQLNNR
notes: residues left after HRV 3C cleavage (so in the source); human β-arrestin-1, cysteine-free, 3A mutant; Used in the NMR experiments, unlabelled or [U-15N,13C,2H]-labelled; also called hβArr1-3A; βArr-3A; source: E. coli BL21(DE3), purified (Ni-NTA, HRV 3C cleavage, HiTrap Q, SEC); not shown: His6, N-terminal, cleaved; Protein C tag, N-terminal, cleaved
